This note sets out measurements from publication PMC10593818.

Protein sequences, listed by entry. Tags and fused reporters are not part of them. Lines headed by an entry give the natural chain unless they say otherwise; changes in a name come on top. Residues count along the entry.
UniProt O60603: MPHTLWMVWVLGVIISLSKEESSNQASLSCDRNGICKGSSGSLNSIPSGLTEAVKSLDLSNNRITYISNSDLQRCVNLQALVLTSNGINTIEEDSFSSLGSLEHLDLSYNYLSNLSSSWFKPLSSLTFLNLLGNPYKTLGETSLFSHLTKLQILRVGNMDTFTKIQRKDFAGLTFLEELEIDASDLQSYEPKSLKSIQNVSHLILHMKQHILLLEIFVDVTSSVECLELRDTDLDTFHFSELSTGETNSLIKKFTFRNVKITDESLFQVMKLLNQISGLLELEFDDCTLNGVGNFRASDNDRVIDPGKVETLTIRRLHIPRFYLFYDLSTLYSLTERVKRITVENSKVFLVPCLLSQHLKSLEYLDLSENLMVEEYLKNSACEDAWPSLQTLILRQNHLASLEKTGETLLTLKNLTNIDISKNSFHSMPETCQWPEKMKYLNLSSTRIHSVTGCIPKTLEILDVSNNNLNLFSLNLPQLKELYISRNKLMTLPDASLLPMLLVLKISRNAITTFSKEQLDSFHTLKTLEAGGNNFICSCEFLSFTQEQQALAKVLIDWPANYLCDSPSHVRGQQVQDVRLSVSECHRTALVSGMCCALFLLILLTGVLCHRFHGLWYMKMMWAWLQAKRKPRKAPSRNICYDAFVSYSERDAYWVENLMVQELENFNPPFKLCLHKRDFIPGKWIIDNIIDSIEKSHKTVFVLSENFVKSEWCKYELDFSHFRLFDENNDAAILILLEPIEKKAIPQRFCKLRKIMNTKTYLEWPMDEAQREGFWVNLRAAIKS
UniProt Q9QUN7, residues 25-784: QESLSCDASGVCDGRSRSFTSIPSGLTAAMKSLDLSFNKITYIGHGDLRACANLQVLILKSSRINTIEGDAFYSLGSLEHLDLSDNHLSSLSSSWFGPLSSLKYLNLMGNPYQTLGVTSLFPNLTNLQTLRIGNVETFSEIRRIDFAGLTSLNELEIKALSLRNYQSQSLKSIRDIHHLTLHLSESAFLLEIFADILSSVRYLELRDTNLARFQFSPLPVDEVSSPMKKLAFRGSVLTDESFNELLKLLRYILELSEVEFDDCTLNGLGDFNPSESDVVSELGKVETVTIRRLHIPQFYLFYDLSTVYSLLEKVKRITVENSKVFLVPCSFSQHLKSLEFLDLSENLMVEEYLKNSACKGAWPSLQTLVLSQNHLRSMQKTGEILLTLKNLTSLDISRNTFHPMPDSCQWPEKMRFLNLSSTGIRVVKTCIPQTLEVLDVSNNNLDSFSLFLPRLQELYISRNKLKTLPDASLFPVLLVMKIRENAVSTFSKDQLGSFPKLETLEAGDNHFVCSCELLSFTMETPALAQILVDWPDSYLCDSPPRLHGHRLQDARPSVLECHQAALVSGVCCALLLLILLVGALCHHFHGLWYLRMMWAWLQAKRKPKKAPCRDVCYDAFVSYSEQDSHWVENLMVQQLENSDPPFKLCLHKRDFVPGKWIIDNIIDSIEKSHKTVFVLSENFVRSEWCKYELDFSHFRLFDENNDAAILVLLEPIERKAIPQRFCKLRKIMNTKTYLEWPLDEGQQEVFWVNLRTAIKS

For assay [1], the target named is T1, YFP^N-CLEC2D / YFP^C-CLEC2D (human) (UniProt Q9UHP7).
T1 sequence: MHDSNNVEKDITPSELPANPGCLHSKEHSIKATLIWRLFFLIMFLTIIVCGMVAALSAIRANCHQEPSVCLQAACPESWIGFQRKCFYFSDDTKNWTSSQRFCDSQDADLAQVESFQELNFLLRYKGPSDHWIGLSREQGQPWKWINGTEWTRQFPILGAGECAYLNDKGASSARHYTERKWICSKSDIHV
Nature of the assay: split reporter; BiFC with HA-tagged CLEC2D or Myc-tagged TLR2 co-expressed as competitor in 293T cells; frequency of YFP+ cells.

Assay [2] deals with T2, human CLEC2D-Flag (human) (UniProt Q9UHP7).
T2 sequence: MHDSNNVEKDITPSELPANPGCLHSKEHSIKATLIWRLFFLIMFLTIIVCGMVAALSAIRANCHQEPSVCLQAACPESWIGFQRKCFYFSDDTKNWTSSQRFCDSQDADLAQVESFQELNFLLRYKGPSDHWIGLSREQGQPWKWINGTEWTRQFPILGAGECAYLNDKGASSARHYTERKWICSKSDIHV
Nature of the assay: co-IP; tagged proteins co-expressed in HEK293T cells, without or with C. albicans yeast (MOI = 5); lysed in Western and IP buffer; antibody-conjugated magnetic beads overnight at 4 °C; immunoblot.

Assay [3] has as its target T3, endogenous CLEC2D of human PBMCs (human (endogenous in PBMCs)) (UniProt Q9UHP7).
T3 sequence: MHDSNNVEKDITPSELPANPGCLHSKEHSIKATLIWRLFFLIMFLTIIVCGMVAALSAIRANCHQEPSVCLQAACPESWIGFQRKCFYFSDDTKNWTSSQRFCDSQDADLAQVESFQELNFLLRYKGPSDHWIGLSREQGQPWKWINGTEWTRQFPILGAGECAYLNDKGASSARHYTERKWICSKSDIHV
Briefly: FRET or BRET; endogenous proteins on fixed human PBMCs after 60 min curdlan; Cy3-anti-CLEC2D (donor) and Cy5-anti-TLR2 (acceptor) antibodies; acceptor photobleaching, confocal microscope.

Assay [4] addresses T1, YFP^N-CLEC2D / YFP^C-CLEC2D (human). Briefly: split reporter; BiFC: YFP^N and YFP^C fusions co-transfected into HEK293 cells; YFP+ cells by flow cytometry or confocal microscopy. For orientation: A flow cytometer gives signals particle by particle.
Assay [5] addresses YFP^C-TLR2 (human) (UniProt O60603). Nature of the assay: split reporter; BiFC with HA-tagged CLEC2D or Myc-tagged TLR2 co-expressed as competitor in 293T cells; frequency of YFP+ cells.
Assay [6] deals with endogenous TLR2 of mouse BMDCs (mouse (endogenous in BMDCs)) (UniProt Q9QUN7). Nature of the assay: co-IP; endogenous proteins of mouse BMDCs stimulated with curdlan or heat-killed C. albicans yeast (MOI = 5); lysate incubated with anti-TLR2 antibody, protein A/G magnetic beads; immunoblot. On the technique in general: Immunoblotting shows a protein as a band on a membrane.
The target of assay [7] is human TLR2-Myc (human) (UniProt O60603). Briefly: co-IP; tagged proteins co-expressed in HEK293T cells, without or with C. albicans yeast (MOI = 5); lysed in Western and IP buffer; antibody-conjugated magnetic beads overnight at 4 °C; immunoblot.

No constants are given. Whether binding was seen depends on the method and setting. Binding seen in cells or lysates may run through a third protein. Some binding calls cover weakened binding; strength is not graded here. For part of these data: Sequences can lack the tags named with a protein.

In the case of “human TLR2-Myc (from UniProt O60603 21-784) (receptor)”, the binding result in assay [1] and in assay [2] was “binds” throughout.

Turning to “endogenous TLR2 of human PBMCs (from UniProt O60603 21-784) (receptor)”, in assay [3], the binding result was “binds”.

As to “YFP^C-TLR2 (from UniProt O60603 21-784) (receptor)”, the binding entry in assay [1] and in assay [4] was “binds” in each case.

B1: HA-tagged CLEC2D (receptor, UniProt Q9UHP7 1-191)
chain: MHDSNNVEKDITPSELPANPGCLHSKEHSIKATLIWRLFFLIMFLTIIVCGMVAALSAIRANCHQEPSVCLQAACPESWIGFQRKCFYFSDDTKNWTSSQRFCDSQDADLAQVESFQELNFLLRYKGPSDHWIGLSREQGQPWKWINGTEWTRQFPILGAGECAYLNDKGASSARHYTERKWICSKSDIHV
For B1, the binding entry in assay [5] and in assay [1] was “binds” throughout.

B2: YFP^N-CLEC2D / YFP^C-CLEC2D (receptor, UniProt Q9UHP7 1-191)
chain: MHDSNNVEKDITPSELPANPGCLHSKEHSIKATLIWRLFFLIMFLTIIVCGMVAALSAIRANCHQEPSVCLQAACPESWIGFQRKCFYFSDDTKNWTSSQRFCDSQDADLAQVESFQELNFLLRYKGPSDHWIGLSREQGQPWKWINGTEWTRQFPILGAGECAYLNDKGASSARHYTERKWICSKSDIHV
Regarding B2, the binding result in assay [1] and in assay [4] was “binds” throughout.

B3: endogenous Clec2d of mouse BMDCs (receptor, UniProt Q91V08 1-207)
chain: MCVTKASLPMLSPTGSPQEVEVGKILQGKRHGTISPESCAKLYCYYGVIMVLTVAVIALSVALSATKTEQIPVNKTYAACPQNWIGVENKCFYFSEYPSNWTFAQAFCMAQEAQLARFDNQDELNFLMRYKANFDSWIGLHRESSEHPWKWTDNTEYNNTIPIRGEERFAYLNNNGISSTRIYSLRMWICSKLNSYSLHCQTPFFPS
As to B3, the binding result in assay [6] is “binds”.

B4: human Dectin-1-HA (receptor, UniProt Q9BXN2 1-247)
chain: MEYHPDLENLDEDGYTQLHFDSQSNTRIAVVSEKGSCAASPPWRLIAVILGILCLVILVIAVVLGTMAIWRSNSGSNTLENGYFLSRNKENHSQPTQSSLEDSVTPTKAVKTTGVLSSPCPPNWIIYEKSCYLFSMSLNSWDGSKRQCWQLGSNLLKIDSSNELGFIVKQVSSQPDNSFWIGLSRPQTEVPWLWEDGSTFSSNLFQIRTTATQENPSPNCVWIHVSVIYDQLCSVPSYSICEKKFSM
On to B4, for which the binding entry in assay [2] and in assay [7] was “no binding” in each case.
